Laboratory results reported in PMC6450892.
No constants are given. Whether binding was seen depends on the method and setting. In cells and extracts the contact can be indirect. Some results given as binding are weak or reduced against the parent protein; the word gives no strength.

Sequences of proteins named here, by UniProt entry; tags and fusion partners are left off. A change or cut given only in a name is not applied to a line headed by its entry.
UniProt O75376: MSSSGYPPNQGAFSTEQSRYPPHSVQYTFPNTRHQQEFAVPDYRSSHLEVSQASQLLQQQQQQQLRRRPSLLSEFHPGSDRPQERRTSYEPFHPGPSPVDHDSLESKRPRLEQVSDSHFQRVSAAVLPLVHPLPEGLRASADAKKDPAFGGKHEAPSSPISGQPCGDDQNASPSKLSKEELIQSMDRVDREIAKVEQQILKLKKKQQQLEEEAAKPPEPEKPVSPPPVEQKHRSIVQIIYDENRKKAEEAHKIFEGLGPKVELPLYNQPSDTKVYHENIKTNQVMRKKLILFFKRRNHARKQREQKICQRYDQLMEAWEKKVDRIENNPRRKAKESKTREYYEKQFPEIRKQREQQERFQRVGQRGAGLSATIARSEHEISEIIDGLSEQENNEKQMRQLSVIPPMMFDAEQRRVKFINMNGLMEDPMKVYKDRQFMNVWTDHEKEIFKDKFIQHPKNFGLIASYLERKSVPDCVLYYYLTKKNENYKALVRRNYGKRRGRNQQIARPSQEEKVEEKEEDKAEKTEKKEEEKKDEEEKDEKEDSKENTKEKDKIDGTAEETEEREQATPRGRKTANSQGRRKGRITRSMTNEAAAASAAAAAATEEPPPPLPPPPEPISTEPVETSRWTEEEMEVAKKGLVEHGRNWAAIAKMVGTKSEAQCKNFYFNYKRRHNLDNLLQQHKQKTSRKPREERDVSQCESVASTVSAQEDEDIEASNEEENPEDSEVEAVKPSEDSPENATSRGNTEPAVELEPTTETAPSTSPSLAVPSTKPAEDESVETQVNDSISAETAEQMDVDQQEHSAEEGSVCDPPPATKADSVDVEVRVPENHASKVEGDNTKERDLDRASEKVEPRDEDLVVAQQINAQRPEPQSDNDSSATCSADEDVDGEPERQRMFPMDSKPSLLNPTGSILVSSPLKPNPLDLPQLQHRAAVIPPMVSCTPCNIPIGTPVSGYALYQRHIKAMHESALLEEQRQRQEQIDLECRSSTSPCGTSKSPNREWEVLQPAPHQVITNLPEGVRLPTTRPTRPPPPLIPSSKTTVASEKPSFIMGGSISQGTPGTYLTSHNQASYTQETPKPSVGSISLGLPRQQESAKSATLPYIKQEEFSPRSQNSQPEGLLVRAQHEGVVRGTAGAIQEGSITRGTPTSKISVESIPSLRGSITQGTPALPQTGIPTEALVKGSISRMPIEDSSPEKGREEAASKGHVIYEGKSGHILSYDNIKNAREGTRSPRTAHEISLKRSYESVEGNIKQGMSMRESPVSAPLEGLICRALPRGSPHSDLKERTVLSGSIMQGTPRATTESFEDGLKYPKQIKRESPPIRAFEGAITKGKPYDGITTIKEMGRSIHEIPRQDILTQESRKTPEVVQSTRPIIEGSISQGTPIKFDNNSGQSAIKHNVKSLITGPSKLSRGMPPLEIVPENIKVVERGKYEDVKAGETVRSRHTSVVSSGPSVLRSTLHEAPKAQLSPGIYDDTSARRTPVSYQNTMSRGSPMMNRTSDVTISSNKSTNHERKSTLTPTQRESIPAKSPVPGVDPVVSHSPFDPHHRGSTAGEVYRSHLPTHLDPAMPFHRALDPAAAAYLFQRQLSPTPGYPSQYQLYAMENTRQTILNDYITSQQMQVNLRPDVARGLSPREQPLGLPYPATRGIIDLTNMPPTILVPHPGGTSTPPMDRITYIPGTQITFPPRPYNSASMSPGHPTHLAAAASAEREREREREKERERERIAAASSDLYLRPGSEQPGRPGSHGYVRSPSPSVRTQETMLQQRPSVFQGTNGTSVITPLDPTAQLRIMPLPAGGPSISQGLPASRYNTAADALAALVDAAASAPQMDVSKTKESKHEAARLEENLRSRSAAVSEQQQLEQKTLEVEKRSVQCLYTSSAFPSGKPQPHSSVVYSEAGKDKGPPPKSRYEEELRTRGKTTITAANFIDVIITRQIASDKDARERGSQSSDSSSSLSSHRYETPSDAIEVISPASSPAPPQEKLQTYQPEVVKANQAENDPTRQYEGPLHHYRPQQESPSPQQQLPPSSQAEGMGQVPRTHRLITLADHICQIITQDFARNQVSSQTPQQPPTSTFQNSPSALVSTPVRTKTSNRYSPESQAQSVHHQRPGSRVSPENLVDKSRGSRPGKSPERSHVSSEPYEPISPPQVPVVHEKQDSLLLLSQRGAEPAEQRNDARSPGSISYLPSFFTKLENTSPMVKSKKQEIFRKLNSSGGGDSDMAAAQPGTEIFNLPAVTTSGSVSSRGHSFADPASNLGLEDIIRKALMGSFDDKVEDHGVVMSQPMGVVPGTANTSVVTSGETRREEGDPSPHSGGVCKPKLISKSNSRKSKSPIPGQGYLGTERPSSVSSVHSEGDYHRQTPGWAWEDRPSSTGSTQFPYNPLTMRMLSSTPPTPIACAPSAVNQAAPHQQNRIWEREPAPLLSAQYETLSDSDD

Columns and labels:
[1] = target: One-Strep-FLAG-tagged GABARAP (gamma-aminobutyric acid receptor-associated protein) (UniProt O95166); assay: pull-down; OSF-GABARAP co-expressed with a FLAG-tagged NCoR1 construct in HEK293T; lysate at 48 h in TNE buffer precipitated with Strep-Tactin Sepharose at 4 °C for 2 h; washed with TNE containing 1.0 M NaCl; immunoblot
[2] = target: One-Strep-FLAG-tagged GABARAP (gamma-aminobutyric acid receptor-associated protein) (UniProt O95166); assay: pull-down; OSF-GABARAP immobilized on Strep-Tactin Sepharose mixed with lysates of cells expressing each NCoR1-deletion mutant, 4 °C for 2 h; washed with TNE containing 1.0 M NaCl; anti-FLAG immunoblot; only the target purified
[3] = target: One-Strep-FLAG-tagged GABARAP (gamma-aminobutyric acid receptor-associated protein) (UniProt O95166); assay: pull-down; OSF-tagged LC3B or a GABARAP family protein expressed alone in HEK293T; lysate in TNE buffer (20 mM Tris-Cl pH 7.5, 0.5% NP-40, 150 mM NaCl, 1 mM EDTA, 1 mM DTT) incubated with Strep-Tactin Sepharose at 4 °C for 2 h; washed with TNE containing 1.0 M NaCl; immunoblot of the cells' own NCoR1, ULK1 and p62
[4] = target: One-Strep-FLAG-tagged gamma-aminobutyric acid receptor-associated protein-like 2 (GABARAPL2) (UniProt P60520); assay: as above

| Substance | binding [1] | binding [4] | other results |
| --- | --- | --- | --- |
| FLAG-tagged NCoR1 (wild type) (from UniProt O75376 1-2440) | binds | – | – |
| FLAG-tagged NCoR1 N1 (amino acids 1–370) (from UniProt O75376 1-370) (domain or fragment) | – | – | binding [2]: binds |
| FLAG-tagged NCoR1 N (aa 1–674) (from UniProt O75376 1-674) (domain or fragment) | binds | – | – |
| FLAG-tagged NCoR1 ΔC (aa 1–1149) (from UniProt O75376 1-1149) (domain or fragment) | binds | – | – |
| nuclear receptor co-repressor 1 (NCoR1), endogenous (from UniProt O75376 1-2440) | – | binds | binding [3]: binds |
| p62/SQSTM1, endogenous (from UniProt Q13501 1-440) | – | binds | – |
